In publication PMC7573076:
No constants are given. Whether binding was seen depends on the method and setting. Binding seen in cells or lysates may run through a third protein. Some entries that bind do so weakly or less than the wild type. For part of these data: Sequences can lack the tags named with a protein. Blank lines part the entries; values can stand above or below the molecule they belong to.

Sequences of proteins named here, by UniProt entry; tags and fusion partners are left off.
UniProt O73885: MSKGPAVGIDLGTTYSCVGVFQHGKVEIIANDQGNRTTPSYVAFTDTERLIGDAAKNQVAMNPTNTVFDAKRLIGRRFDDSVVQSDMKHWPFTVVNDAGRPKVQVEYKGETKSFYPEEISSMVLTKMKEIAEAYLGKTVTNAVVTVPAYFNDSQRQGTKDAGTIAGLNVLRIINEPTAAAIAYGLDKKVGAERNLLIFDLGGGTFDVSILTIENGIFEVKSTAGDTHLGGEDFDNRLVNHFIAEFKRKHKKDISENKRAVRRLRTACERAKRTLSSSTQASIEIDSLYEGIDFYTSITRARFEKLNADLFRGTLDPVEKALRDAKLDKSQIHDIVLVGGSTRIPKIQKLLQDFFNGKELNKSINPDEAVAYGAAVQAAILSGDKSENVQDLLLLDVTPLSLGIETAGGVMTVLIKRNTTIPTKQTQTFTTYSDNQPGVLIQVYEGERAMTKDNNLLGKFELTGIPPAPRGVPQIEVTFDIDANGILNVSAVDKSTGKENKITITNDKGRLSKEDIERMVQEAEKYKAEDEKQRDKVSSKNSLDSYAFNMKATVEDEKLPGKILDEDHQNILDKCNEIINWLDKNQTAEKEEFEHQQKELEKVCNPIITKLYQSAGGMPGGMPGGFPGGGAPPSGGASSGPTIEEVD
UniProt P08106: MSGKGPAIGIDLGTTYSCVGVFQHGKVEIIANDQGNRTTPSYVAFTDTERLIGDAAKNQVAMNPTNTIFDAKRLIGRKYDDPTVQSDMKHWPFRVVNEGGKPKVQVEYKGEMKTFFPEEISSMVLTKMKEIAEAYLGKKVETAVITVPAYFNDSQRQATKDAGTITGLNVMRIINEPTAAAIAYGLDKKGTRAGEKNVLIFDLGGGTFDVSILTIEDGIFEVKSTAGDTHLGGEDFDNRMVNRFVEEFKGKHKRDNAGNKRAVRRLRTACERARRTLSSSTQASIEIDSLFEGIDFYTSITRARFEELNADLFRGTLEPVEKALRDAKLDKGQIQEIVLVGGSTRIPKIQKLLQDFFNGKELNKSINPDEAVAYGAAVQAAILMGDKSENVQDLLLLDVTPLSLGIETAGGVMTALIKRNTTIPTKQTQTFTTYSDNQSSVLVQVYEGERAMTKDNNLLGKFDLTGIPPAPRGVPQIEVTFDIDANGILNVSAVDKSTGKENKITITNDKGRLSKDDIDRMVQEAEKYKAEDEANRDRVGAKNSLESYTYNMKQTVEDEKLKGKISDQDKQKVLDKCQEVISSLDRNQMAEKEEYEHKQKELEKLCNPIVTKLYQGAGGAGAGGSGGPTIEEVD

Key:
HA-chMDA5-N (chicken) = molecular target: T1, HA-chMDA5-N (chicken) (UniProt D9N195); test: co-IP; tagged constructs co-transfected into DF1 cells, RIPA lysate 24 h later, anti-Flag or anti-HA magnetic beads at 4°C, immunoblot
T1 sequence: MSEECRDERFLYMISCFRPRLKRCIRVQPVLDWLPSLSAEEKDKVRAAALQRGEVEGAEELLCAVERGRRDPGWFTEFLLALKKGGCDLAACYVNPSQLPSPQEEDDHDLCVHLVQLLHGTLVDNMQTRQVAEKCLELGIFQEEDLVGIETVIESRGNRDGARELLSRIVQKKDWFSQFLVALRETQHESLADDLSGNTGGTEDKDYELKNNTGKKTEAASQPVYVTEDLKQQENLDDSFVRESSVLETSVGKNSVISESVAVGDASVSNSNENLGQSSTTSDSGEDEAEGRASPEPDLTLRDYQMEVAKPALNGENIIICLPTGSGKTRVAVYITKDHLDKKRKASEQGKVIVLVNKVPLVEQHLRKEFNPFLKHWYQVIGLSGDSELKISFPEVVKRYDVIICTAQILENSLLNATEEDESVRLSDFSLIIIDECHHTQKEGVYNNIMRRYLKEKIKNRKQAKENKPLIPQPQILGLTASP

[1] = molecular target: T2, chicken MDA5 (chMDA5) (chicken (endogenous in DF1)) (UniProt D9N195); test: co-IP; DF1 cell lysates immunoprecipitated with rabbit pAb against chMDA5, western blotting with antibodies against the endogenous proteins (Supplementary Figure S2)
T2 sequence: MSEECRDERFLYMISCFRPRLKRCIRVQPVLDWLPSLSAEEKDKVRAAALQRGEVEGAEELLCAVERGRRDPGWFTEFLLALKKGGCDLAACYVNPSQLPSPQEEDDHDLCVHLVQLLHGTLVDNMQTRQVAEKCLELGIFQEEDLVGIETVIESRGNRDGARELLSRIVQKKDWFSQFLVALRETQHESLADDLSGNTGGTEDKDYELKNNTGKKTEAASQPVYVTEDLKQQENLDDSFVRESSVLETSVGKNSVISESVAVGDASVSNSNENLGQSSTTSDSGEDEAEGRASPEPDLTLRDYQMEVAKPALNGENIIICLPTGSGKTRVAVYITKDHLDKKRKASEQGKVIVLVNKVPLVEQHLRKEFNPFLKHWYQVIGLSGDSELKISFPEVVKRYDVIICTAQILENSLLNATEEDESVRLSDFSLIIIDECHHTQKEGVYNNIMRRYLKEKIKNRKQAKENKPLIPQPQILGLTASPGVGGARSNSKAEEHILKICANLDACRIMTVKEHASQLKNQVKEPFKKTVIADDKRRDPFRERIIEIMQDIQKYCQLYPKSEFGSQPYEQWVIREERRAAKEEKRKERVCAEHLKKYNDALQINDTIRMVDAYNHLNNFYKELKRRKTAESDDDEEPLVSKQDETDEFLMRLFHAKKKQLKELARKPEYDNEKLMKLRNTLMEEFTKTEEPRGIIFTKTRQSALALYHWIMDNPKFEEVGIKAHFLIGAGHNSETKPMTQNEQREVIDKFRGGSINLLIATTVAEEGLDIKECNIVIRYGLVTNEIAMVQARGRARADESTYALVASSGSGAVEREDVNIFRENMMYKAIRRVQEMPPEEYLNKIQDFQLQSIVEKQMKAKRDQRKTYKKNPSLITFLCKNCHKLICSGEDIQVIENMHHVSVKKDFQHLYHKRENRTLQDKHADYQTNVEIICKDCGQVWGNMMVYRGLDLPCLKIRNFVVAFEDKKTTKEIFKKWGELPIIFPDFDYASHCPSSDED

Molecule: Flag-tagged chicken HSPA8 (from UniProt O73885 1-646)
binding (HA-chMDA5-N (chicken)): binds

Molecule: chicken HSP70 (from UniProt P08106 1-634)
binding [1]: binds

B1: Flag-tagged chicken PRDX1 (protein, UniProt P0CB50 1-199)
chain: MSSGKAFIGKPAPDFTATAVMPDGQFKDIKLSDYRGKYVVFFFYPLDFTFVCPTEIIAYSDRADEFKKINCEIIGASVDSHFCHLAWINTPKKQGGLGTMKIPLVSDTKRVIAKDYGVLKEDEGIAYRGLFIIDEKGILRQITINDLPVGRSVDETLRLVQAFQFTDKHGEVCPAGWKPGSDTIKPDVQKSKEYFSKQK
binding (HA-chMDA5-N (chicken)): binds

B2: chicken PRDX1 (protein, UniProt P0CB50 1-199)
chain: B1 chain
binding [1]: binds

Further lines, results first:

binding (HA-chMDA5-N (chicken)): binds
Molecule: Flag-tagged chicken HSP70 (from UniProt P08106 1-634)

binding [1]: binds
Molecule: chicken HSPA8 (from UniProt O73885 1-646)
